In PubChem BioAssay AID651660 (Broad Institute, 2012):
The whole screen tested about 1,900 compounds, of which about 15 (0.8%) were called active.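 How the source made its calls: active means every replicate shows at least 50% inhibition; inconclusive means mean inhibition at least 50% but some replicate below; inactive means the rest.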 Some of the results follow.

The chains behind the UniProt entries cited, without tags or fusion partners. Where a name states a change or a piece, a line headed by the entry shows the natural chain unless it says otherwise.
UniProt P43351: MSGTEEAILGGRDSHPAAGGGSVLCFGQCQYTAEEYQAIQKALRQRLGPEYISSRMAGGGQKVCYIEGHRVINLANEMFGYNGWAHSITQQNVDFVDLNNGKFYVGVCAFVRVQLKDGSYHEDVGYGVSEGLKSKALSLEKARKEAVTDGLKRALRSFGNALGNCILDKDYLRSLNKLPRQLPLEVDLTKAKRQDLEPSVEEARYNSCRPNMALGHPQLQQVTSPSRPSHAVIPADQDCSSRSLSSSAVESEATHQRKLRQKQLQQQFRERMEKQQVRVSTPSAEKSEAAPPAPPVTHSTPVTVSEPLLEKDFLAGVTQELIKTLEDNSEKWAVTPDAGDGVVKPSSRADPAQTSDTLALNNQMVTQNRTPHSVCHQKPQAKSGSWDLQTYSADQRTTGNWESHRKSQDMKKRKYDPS

Biological target: DNA repair protein RAD52 homolog (Homo sapiens) (UniProt P43351)
Assay: RAD52 ssDNA annealing inhibitors, primary screen, biochemical, FRET, single point (AID 651660);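 further: 0% = median of neutral control wells and 100% = median of positive control wells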
Details: Recombinant RAD52 ssDNA annealing, FRET fluorescence, 30 min; at 18.7 µM; active compounds read high

inhibition, inactive:
CN(C)CCCNc1ncnc2c1cnn2-c1ccccc1 -3.11%
COc1cc(NC(=O)COc2ccccc2)c(OC)cc1NC(C)=O -8.13%
CN1/C(=C\C=Nc2ccccc2)C(C)(C)c2ccccc21 -41.7%
COc1cc(C(=O)NCCc2c[nH]c3ccccc23)ccc1OCc1c(C)noc1C 2.01%
CC(C)c1ccc2[nH]c3c(c2c1)CCCC3=O 4.13%
Cc1ccc2c(c1)C(CCN)C(=O)N2Cc1ccccc1 (centres undefined) 16.9%
COC(=O)c1cc(Br)c(=O)n(CCc2ccc(O)cc2)c1 -4.38%
CCOC(=O)C1NN=C(C(=O)c2ccccc2)C1c1ccc(Cl)cc1 (centres undefined) -14.5%
Cc1cccc2c1CC(C)(C)N/C2=C\C(N)=O -11.6%
CC(C[N+](C)(C)C)OC(N)=O (centres undefined) 7.25%
Cc1onc(-c2c(Cl)cccc2Cl)c1C(=O)NC1C(=O)N2C1SC(C)(C)C2C(=O)O (centres undefined) -6.94%
CN(CCCN1CCOCC1)Cc1cn(C)nc1-c1ccccc1F -2.16%
CN(C)CCN(Cc1ccc(Cl)cc1)c1ccccn1 -1.17%
O=C(c1cccc2ccccc12)C1CCCN(C(=O)CCN2CCCO2)C1 (centres undefined) -0.246%
COc1ccc([C@@H]2Sc3ccccc3N(CCN(C)C)C(=O)[C@@H]2OC(C)=O)cc1 -15.9%
COC(=O)[C@@H](N)CS -24.3%
O=C(CS(=O)(=O)c1ccccc1)c1ccc2c(c1)OCCO2 -0.895%
Cc1cn([C@H]2C[C@H](N=[N+]=[N-])[C@@H](CO)O2)c(=O)[nH]c1=O 0.197%
CCCCC1C(=O)N(c2ccccc2)N(c2ccccc2)C1=O 2.56%
C#CCN1C(=O)C(O)(CC(=O)c2ccc(OC)c(OC)c2)c2ccccc21 (centres undefined) 5.35%
COc1ccc(S(=O)(=O)NC(Cc2cnc[nH]2)C(=O)O)cc1 (centres undefined) -2.2%
COc1ccccc1/C=C/C(=O)OCCN1CCOCC1 -22.5%
CC1=CC(=O)c2ccccc2C1=O -14.1%
CN(C)CCOc1ccccc1Cc1ccccc1 1.84%
CC1/C(=C\c2ccc(Cl)cc2)C(=O)C2CC1C2(C)C (centres undefined) 13.8%
CCOc1ccc(C(NC(C)=O)c2ccc(OC)c(OC)c2)cc1 (centres undefined) -1.19%
CC1(c2ccccc2)CC(C)(C)N2C(=O)C(=O)c3cccc1c32 (centres undefined) 1.28%
CCOc1ccc2nc(N/C(N)=N/S(C)(=O)=O)nc(C)c2c1 -3.39%
Cc1ccc(S(=O)(=O)NC(C(=O)Oc2cc3oc(=O)cc(C)c3cc2Cl)C(C)C)cc1 (centres undefined) 3.66%
Cc1[nH]c2ccccc2c1C(=O)C(=O)NCc1ccco1 1.74%
COCCN(CCOC)Cc1c(C)[nH]c2c(C)c(C)ccc2c1=O -2.9%
CCC(=O)Oc1ccc(C(=O)Nc2ccc([N+](=O)[O-])cc2)cc1 3.79%
Cc1cnc(N)c2c(=O)oc3ccccc3c12 -14.5%
CC(=O)OCC(=O)[C@@]12OC3(CCCC3)O[C@@H]1C[C@H]1[C@@H]3CCC4=CC(=O)C=C[C@]4(C)[C@@]3(F)[C@@H](O)C[C@@]12C 4.21%
CCn1c(C)cc2c(c1=O)C(c1ccccc1)C(C(=O)OC)=C(N)O2 (centres undefined) -14.3%
NC(=O)c1c(-c2ccccc2)oc2ccc(O)cc12 -0.68%
CCCC(=O)Nc1ccc(OCC(O)CNC(C)C)c(C(C)=O)c1 (centres undefined) -0.789%
COc1ccc(C2C3CCCCC3(O)CCN2C(=O)c2cccs2)cc1 (centres undefined) 3.36%
COc1ccc(C2=NOC(COc3ccc4c(C)cc(=O)oc4c3)C2)c(OC)c1 (centres undefined) -10%
O=c1c(-c2ccccc2)c(O)c2cccc3c2n1CCC3 -3.26%
CC1CCCC(C)N1NC(=O)c1ccc(Cl)c(S(N)(=O)=O)c1 (centres undefined) -9.73%
Nc1nnc(-c2cccc(Cl)c2Cl)c(N)n1 3.5%
C(=C/c1nccc2c1[nH]c1ccccc12)/c1ccc2c(c1)OCO2 38.5%
OCC1CCN(Cc2cn(Cc3ccccc3)nc2-c2cc3ccccc3o2)CC1 -15.4%
CC1(C)Cc2ccccc2-c2n[nH]c(=S)n21 -3.47%
COc1ccccc1CCn1cnc2c3cc(C)ccc3n(C)c2c1=O -2.79%
COc1ccc2c(c1)c(=O)oc1cc3occ(C(C)(C)C)c3cc12 -4.79%
CC(=O)O[C@]1(C(C)=O)CC[C@H]2[C@@H]3C=C(C)C4=CC(=O)CC[C@]4(C)[C@H]3CC[C@@]21C 7.57%
CC(=O)/C=C/c1ccc(C)o1 -8.38%
C=CCOC(=O)C1=C(C)NC(=O)NC1/C=C/c1ccccc1OC (centres undefined) -14.2%
O=C(/C=C/c1ccc2c(c1)OCCCO2)c1ccc2ccccc2c1O -4.43%
Nc1nnc(CSCc2ccc(Cl)cc2Cl)s1 -0.765%
CC(=O)N(C(C)=O)c1nc2nc(C)cc(C)n2n1 -3.11%
COc1cc2cc(C(=O)O)[nH]c2c(OC)c1OC -10.3%
Cc1oc2cc(O)ccc2c(=O)c1Oc1ccccc1Br 2.65%
O=C(CC(C(=O)O)c1c[nH]c2ccccc12)c1ccccc1 (centres undefined) -7.15%
CC(=O)NCCCCCCNC(C)=O -5.85%
CC(C)Cc1ccc(C(C)C(=O)Nc2ccc(O)cc2)cc1 (centres undefined) 6.93%
CC(C)OC(=O)CC1C(=O)NCCN1C(=S)NC(=O)c1ccccc1Cl (centres undefined) 1.57%

Four consecutive records from above:
inhibition, inactive:
COc1ccc2c(c1)c(=O)oc1cc3occ(C(C)(C)C)c3cc12 -4.79%
CC(=O)O[C@]1(C(C)=O)CC[C@H]2[C@@H]3C=C(C)C4=CC(=O)CC[C@]4(C)[C@H]3CC[C@@]21C 7.57%
CC(=O)/C=C/c1ccc(C)o1 -8.38%
C=CCOC(=O)C1=C(C)NC(=O)NC1/C=C/c1ccccc1OC (centres undefined) -14.2%
